# In PubChem BioAssay AID1347076 (National Center for Advancing Translational Sciences (NCATS), 2019):
# The campaign covered roughly 400,000 compounds. About 13,000 (3.2%) were called active. Inconclusive means that the source gave no clear call. Such entries were picked first, then a sample of the others. The call rests on the fitted dose curve; in most records, active means well fitted cell-killing curve with a large enough effect; inconclusive means small, poorly fitted or top-dose-only effect, or effect the other way; inactive means flat fitted curve, though single readings scatter. Potencies beside an inconclusive call are fits to weak or partial responses and may not hold up.
# Assay: qHTS assay for MDR1-selective chemotherapeutics: Primary screen using the drug-selected MDR subline cells KB-V1; further: nearly all actives have a fitted effect of over 60% in size
# Settings: KB-V1 MDR cells viability, CellTiter-Glo, 72 h
# In short: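 Compound-treated KB-V1 multidrug-resistant cells, 72 h, 37 degrees C; viability by CellTiter-Glo. Fitted qHTS curves give the values.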
# [1] = activity change, negative = cytotoxicity: at 46.1 µM (top of the series)
# On the % scale 0 is the no-effect control and ±100 the full control effect; potency means the concentration at half of the fitted maximal effect.
smiles,measurement,setting,value
CCOc1ccc(CCNc2nc3ccccc3n3c(C)nnc23)cc1OCC,Potency,[1],"inconclusive: 2.91 µM [rising, partial curve, poor fit]"
Cc1nc(Sc2ccc(Cl)cc2)c(C#N)c(C)c1[N+](=O)[O-],Potency,[1],"inconclusive: 29.1 µM [cytotoxic, single point]"
CC1CN(C(=O)c2ccc(S(=O)(=O)Nc3cccc(C(F)(F)F)c3)cc2)CC(C)O1 (stereo unspecified),Potency,[1],"inconclusive: 20.6 µM [cytotoxic, single point]"
COc1cccc(NC(=O)c2nn(C)cc2Br)c1,Potency,[1],"inconclusive: 29.1 µM [cytotoxic, single point]"
CC(C)C(c1nnnn1Cc1ccc(F)cc1)N1CCSCC1 (stereo unspecified),Potency,[1],"inconclusive: 20.6 µM [cytotoxic, single point]"
N#Cc1c(N2CCN(C(=O)c3ccccc3Cl)CC2)nc(-c2ccccc2)c2c1CCCC2,Potency,[1],inactive
Cc1[nH][nH]c(=O)c1C(c1c(C)[nH][nH]c1=O)c1cn(C)c2ccccc12,Potency,[1],inactive
Cc1ccc(CNC(=O)c2cnn(-c3cccc(C)c3)c2C2CCN(C(=O)OC(C)(C)C)CC2)cc1,Potency,[1],inactive
CC(=O)c1ccc(NS(=O)(=O)c2ccc(-c3cnc(C4CC4)o3)cc2)cc1,"activity change, negative = cytotoxicity",[1],inconclusive: -43%
same,"activity change, negative = cytotoxicity",at 46.1 µM (top of the series),inactive: 0%
CC(C)(C)NC(=O)C1C(c2ccccc2)=Nc2ccccc2N1C(=O)c1ccc(C(F)(F)F)cc1 (stereo unspecified),Potency,[1],"inconclusive: 6.51 µM [cytotoxic, partial curve, poor fit]"
COc1ccc(NC(=O)CN(C)S(=O)(=O)c2ccc(Br)s2)cc1OC,Potency,[1],"inconclusive: 1.84 µM [cytotoxic, partial curve, poor fit]"
Cc1ccc(-c2cn3c(=S)[nH]nc3s2)cc1,Potency,[1],"inconclusive: 29.1 µM [cytotoxic, single point]"
CCN(c1ccccc1)S(=O)(=O)c1ccc(-c2cc(C)no2)s1,Potency,[1],inactive
O=C(O)C1C2CCC(C2)C1C(=O)Nc1ccc(Cl)c(Cl)c1 (stereo unspecified),Potency,[1],inactive
CC(C)CN(CC(C)C)C(=O)CN1C(=O)NC2(CCc3ccccc3C2)C1=O (stereo unspecified),Potency,[1],inactive
CCOC(=O)C(C)Sc1nc(-c2ccccc2Cl)cc(-c2ccccc2)c1C#N (stereo unspecified),Potency,[1],inactive
COc1ccc(C)cc1Nc1n[n+](C)c(-c2ccc(O)cc2O)s1,Potency,[1],inactive
CC(=O)c1cccc(Nc2cc(C)nc3ccc(C)cc23)c1,Potency,[1],"inconclusive: 29.1 µM [cytotoxic, single point]"
Cc1ccc(C(=O)COC(=O)C(Cc2c[nH]c3ccccc23)NC(=O)c2ccc(C(C)(C)C)cc2)cc1 (stereo unspecified),Potency,[1],inactive
CC[C@]1(O)C[C@@H]2CN(CCc3c([nH]c4ccccc34)[C@@](C(=O)OC)(c3cc4c(cc3OC)N(C)[C@H]3[C@@](O)(C(=O)OC)[C@H](OC(C)=O)[C@]5(CC)C=CCN6CC[C@]43[C@@H]65)C2)C1,Potency,[1],active: 5.17 µM
COCCn1c(C)cc(C(=O)COc2nc3ccccc3nc2C)c1C,Potency,[1],"inconclusive: 29.1 µM [cytotoxic, single point]"
Cc1ccc2[nH]c(=O)c(CN(C(=O)c3cccc(Cl)c3)C(C)(C)C)cc2c1,Potency,[1],inactive
O=C(O)Cc1ccc(S(=O)(=O)N2CCCC2)s1,Potency,[1],inactive
O=C(NNC(=S)NC1CCCCC1)c1cccs1,Potency,[1],active: 23.1 µM
CN(C)S(=O)(=O)N1CCC(Oc2cccc(C(=O)N3CCCCCCC3)c2)CC1,Potency,[1],"inconclusive: 8.2 µM [cytotoxic, partial curve]"
O=C(Nc1cccc(C(F)(F)F)c1)C1Cc2c(-c3ccccc3Oc3ccccc3)ccnc2O1 (stereo unspecified),Potency,[1],active: 18.4 µM
CN(CC(=O)N1CCc2ccccc21)S(=O)(=O)c1cccc2cccnc12,Potency,[1],"inconclusive: 29.1 µM [cytotoxic, single point]"
COC(=O)c1ccc(-n2c(C)cc(C(=O)CSc3cccc[n+]3[O-])c2C)cc1,Potency,[1],"inconclusive: 29.1 µM [cytotoxic, single point]"
Cc1cccc(Oc2nc3c(c(=O)n(C)c(=O)n3C)n2Cc2ccccc2)c1C,Potency,[1],inactive
CCC1CCCCN1CCCNC(=O)c1ccc(N2CCCC2=O)cc1 (stereo unspecified),Potency,[1],"inconclusive: 29.1 µM [rising, single point]"
COc1ccc(CNc2ccccc2SC)cc1OC,Potency,[1],"inconclusive: 16.4 µM [cytotoxic, partial curve]"
Cc1cc(/C([O-])=C(/C(=S)Nc2ccc(F)cc2)[n+]2ccccc2)c(C)n1-c1ccc(F)cc1,Potency,[1],active: 23.1 µM
CCOC(=O)c1c(NC(=O)CSc2nnc(N)s2)sc(C)c1-c1ccc(C)cc1,Potency,[1],inactive
CC(C)CC(=O)Nc1cc(-c2ccccc2F)nn1-c1ccccc1,Potency,[1],inactive
O=C(COC(=O)c1ccc(O)cc1)Nc1cc(S(=O)(=O)N2CCCCCC2)ccc1Cl,Potency,[1],"inconclusive: 32.6 µM [cytotoxic, single point]"
O=C(CN1C(=O)NC2(CCCCCC2)C1=O)NC1CC1,Potency,[1],"inconclusive: 16.4 µM [cytotoxic, partial curve, poor fit]"
COC(=O)c1ccccc1-c1ccc(/C=N/Nc2nc(N3CCCC3)nc(N3CCCC3)n2)o1,Potency,[1],"inconclusive: 25.9 µM [cytotoxic, single point]"
COc1ccccc1OC(C)C(=O)N1CC(=O)Nc2ccccc21 (stereo unspecified),Potency,[1],inactive
COc1ccc(-c2ccc(OC)c(OC)c2OC)c(OC)c1OC,Potency,[1],active: 23.1 µM
CCOC(=O)C1CN(S(=O)(=O)c2cccs2)c2ccc(CC(=O)OC)cc2O1 (stereo unspecified),Potency,[1],"inconclusive: 14.6 µM [rising, partial curve, poor fit]"
Cc1cc(C)cc(N(CC(=O)NCC2CCCO2)C(=O)CCC(=O)Nc2nccs2)c1 (stereo unspecified),Potency,[1],inactive
O=[N+]([O-])c1ccc(N/N=C/c2ccccc2)cc1,Potency,[1],"inconclusive: 32.6 µM [cytotoxic, single point]"
CCCn1c2c(c(O)c(C(=O)NC)c1=O)CCCC2,Potency,[1],inactive
Nn1c(Cc2cccc3ccccc23)nnc1SCc1c(F)cccc1Cl,Potency,[1],"inconclusive: 18.4 µM [cytotoxic, single point]"
Nc1cc(S(=O)(=O)c2ccc(N3CCCCC3)c(N)c2)ccc1N1CCCCC1,Potency,[1],"inconclusive: 7.31 µM [cytotoxic, partial curve, poor fit]"
CC(Oc1ccc(-c2ccccc2)cc1)C(=O)N1CCOCC1 (stereo unspecified),Potency,[1],"inconclusive: 16.4 µM [cytotoxic, partial curve]"
Cc1ccc(NC(=O)COC(=O)c2nn(C)c(=O)c3ccccc23)cc1F,Potency,[1],inactive
COC(=O)c1cccc(C23CC4(C2)[C@H](CN(C)[C@@H]4c2ccccc2)C3c2ccccc2)c1 (stereo partly specified),Potency,[1],inactive
O=C(NCc1ccccc1)/C(=C\c1ccc(F)cc1)NC(=O)c1ccco1,Potency,[1],inactive
Cc1ccccc1OCCSc1nnc(C)n1-c1ccccc1,Potency,[1],"inconclusive: 29.1 µM [cytotoxic, single point]"
Cc1ccc(S(=O)(=O)c2cc3c(=O)n4ccccc4nc3n(C3CCCC3)c2=N)cc1,Potency,[1],"inconclusive: 6.51 µM [cytotoxic, partial curve, poor fit]"
Cc1ccc(NC(=O)c2cc(S(=O)(=O)N3CCOCC3)ccc2Cl)cc1S(=O)(=O)N1CCOCC1,Potency,[1],inactive
CC(C)OP(=O)(OC(C)C)C(Nc1ccccc1)c1ccccc1C(F)(F)F (stereo unspecified),Potency,[1],"inconclusive: 16.4 µM [cytotoxic, single point]"
CSc1ccccc1NC(=O)CN(c1ccccc1Br)S(C)(=O)=O,Potency,[1],active: 14.6 µM
O=C(/C=C/c1ccc([N+](=O)[O-])cc1)Nc1ncc([N+](=O)[O-])s1,Potency,[1],active: 8.2 µM
COc1ccc(Cn2c(=O)[nH]c3cc(C(=O)N4CCN(c5ccccc5F)CC4)ccc3c2=O)cc1,Potency,[1],inactive
O=C(NC1CC2CCCC(C1)N2C(=O)Nc1ccc(F)cc1)c1ccccc1 (stereo unspecified),Potency,[1],"inconclusive: 18.4 µM [cytotoxic, single point]"
COc1ccc(-c2nnc(NC(=O)c3ccc([N+](=O)[O-])o3)o2)c(OC)c1,Potency,[1],"inconclusive: 20.6 µM [cytotoxic, partial curve, poor fit]"
CCN(CC)S(=O)(=O)c1cccc(-c2nnc(SCc3nc4ccccc4s3)o2)c1,Potency,[1],"inconclusive: 20.6 µM [cytotoxic, single point]"
Cc1oc2ncn(C)c(=O)c2c1C(=O)NCCCN1CCCCC1C (stereo unspecified),Potency,[1],"inconclusive: 29.1 µM [rising, single point]"
COc1cccc(NS(=O)(=O)c2c(C)cc(C)cc2C)c1,Potency,[1],"inconclusive: 32.6 µM [cytotoxic, single point]"
CCn1c(N)c(C(N)=O)sc1=S,Potency,[1],"inconclusive: 11.6 µM [rising, partial curve]"
Cc1cc(NC(=O)c2sc(Nc3ccc(F)c(Cl)c3)nc2N)no1,Potency,[1],"inconclusive: 18.4 µM [cytotoxic, single point]"
Cc1cnc(=O)[nH]c1SCc1cccc(C(F)(F)F)c1,Potency,[1],inactive
CCCOc1ccc(CNC(=O)c2ccc(C)c(-n3c(C)nc4cccnc43)c2)cc1,Potency,[1],inactive
Cc1ccc(-n2nnnc2-c2cnn(-c3ccc(F)cc3)c2C(F)(F)F)cc1,Potency,[1],"inconclusive: 20.6 µM [cytotoxic, single point]"
Cc1c(C(=O)NCc2cccc(C(F)(F)F)c2)sc(=O)n1Cc1ccc(S(=O)(=O)N(C)C)cc1,Potency,[1],"inconclusive: 8.2 µM [cytotoxic, partial curve]"
O=C(Cn1nc(-c2ccccc2F)ccc1=O)NCc1ccc2c(c1)OCO2,Potency,[1],"inconclusive: 16.4 µM [cytotoxic, single point]"
CC(=O)c1cccc(NC(=O)Nc2nnc(N3CCCC3)s2)c1,Potency,[1],"inconclusive: 23.1 µM [rising, single point]"
CC(=O)c1cc(-c2ccc(F)cc2)n(CC(=O)NC2CCC(C)CC2)c1C (stereo unspecified),Potency,[1],"inconclusive: 16.4 µM [cytotoxic, single point]"

# Given with tabs: entries from further up.
smiles	measurement	setting	value
CC(C)CC(=O)Nc1cc(-c2ccccc2F)nn1-c1ccccc1	Potency	[1]	inactive
O=C(COC(=O)c1ccc(O)cc1)Nc1cc(S(=O)(=O)N2CCCCCC2)ccc1Cl	Potency	[1]	inconclusive: 32.6 µM [cytotoxic, single point]
O=C(CN1C(=O)NC2(CCCCCC2)C1=O)NC1CC1	Potency	[1]	inconclusive: 16.4 µM [cytotoxic, partial curve, poor fit]
COC(=O)c1ccccc1-c1ccc(/C=N/Nc2nc(N3CCCC3)nc(N3CCCC3)n2)o1	Potency	[1]	inconclusive: 25.9 µM [cytotoxic, single point]
COc1ccccc1OC(C)C(=O)N1CC(=O)Nc2ccccc21 (stereo unspecified)	Potency	[1]	inactive

# Shown with tabs: entries from further up
smiles	measurement	setting	value
CC(C)C(c1nnnn1Cc1ccc(F)cc1)N1CCSCC1 (stereo unspecified)	Potency	[1]	inconclusive: 20.6 µM [cytotoxic, single point]
N#Cc1c(N2CCN(C(=O)c3ccccc3Cl)CC2)nc(-c2ccccc2)c2c1CCCC2	Potency	[1]	inactive
